According to patent EP3965790B1, “PENTACYCLIC TRITERPENES IN THE TREATMENT OF VITILIGO” (Pierre Fabre Dermo-Cosmétique, priority 2019, dated 2020):
At least one compound was matched to its structure with a doubt left.

Test system: IL-8
Assay: ELISA of IL-8 release by cytokine-stimulated keratinocytes
Format: cell-based, humains
Conditions: 10 µM, 48 h, supernatant

## CC(C)(C)c1nc2c3cc[nH]c(=O)c3c3cc(F)ccc3c2[nH]1 [Inhibiteur JAK, reference compound]
  Libération d'IL-8 (pg/ml) ± sem: 2 178 ± 225 pg/ml
